Measurements reported in PubChem BioAssay AID1259281 (Sanger Institute, 2017)
Screen: 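Identify essential genes and drug-enhancing knock-downs among kinases and common colorectal mutated genes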 (primary screen). Cells: human COLO678 colorectal cancer cell line. Knock-down reagent: siRNA pool against human genes. Challenge: anchor drugs at fixed doses: BYL719 1 µM, cetuximab 5 µg/ml or trametinib 10 nM; DMSO vehicle for the siRNA-alone arm. Measurement: 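Cell viability compared with non-targeting pool wells, averaged over replicates; knock-down-alone effect also as robust z-score; synergy scores set knock-down plus drug against expected joint effect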. Direction: robust z-score, siRNA alone: higher = more viable cells; strongly negative means essential; viability, siRNA alone: higher = more surviving cells; synergy score with BYL719: higher = stronger synergistic killing with drug. Rule for the call: 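Essential (knock-down alone) when the siRNA-alone robust z-score is below -3; otherwise no change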. Meaning of the calls: active = essential (knock-down alone); inactive = no change.
Shown is one part, drawn at random, of 794 deposited reagents. 22 of them (2.8%) were called active. 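Calls rest on knock-down alone only; drug synergy scores play no part in them.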 Unmarked entries are inactive. Viability is capped at 1. Not all columns of the deposit are shown. Reagent sequences are not shown. Not given: the amount of reagent, the time to read-out.

| gene | robust z-score, siRNA alone | viability, siRNA alone (fraction of control) | synergy score with BYL719 |
| --- | --- | --- | --- |
| EEF2K (eukaryotic elongation factor 2 kinase) | -0.308 | 0.975 | 0.121 |
| UCK2 (uridine-cytidine kinase 2) | -2.9 | 0.893 | -0.189 |
| PCK2 (phosphoenolpyruvate carboxykinase 2, mitochondrial) | 0.473 | 1 | 0.00229 |
| CTCF (CCCTC-binding factor) | 0.473 | 1 | -0.0745 |
| GNAS (GNAS complex locus) | 0.473 | 1 | 0.133 |
| FGR (FGR proto-oncogene, Src family tyrosine kinase) | 0.473 | 1 | 0.0108 |
| MARK2 (microtubule affinity regulating kinase 2) | 0.473 | 1 | -0.061 |
| INSR (insulin receptor) | -0.226 | 0.978 | -0.112 |
| NEK9 (NIMA related kinase 9) | 0.473 | 1 | -0.0747 |
| DYRK1A | 0.473 | 1 | 0.0289 |
| HK3 (hexokinase 3) | 0.473 | 1 | -0.0919 |
| HUS1 (HUS1 checkpoint clamp component) | 0.473 | 1 | 0.0533 |
| PIK3R2 (phosphoinositide-3-kinase regulatory subunit 2) | 0.473 | 1 | -0.0477 |
| CHD9 (chromodomain helicase DNA binding protein 9) | 0.473 | 1 | -0.0919 |
| LATS2 (large tumor suppressor kinase 2) | 0.473 | 1 | -0.0919 |
| ACVR1B (activin A receptor type 1B) | 0.473 | 1 | -0.0478 |
| ROCK1 (Rho associated coiled-coil containing protein kinase 1) | 0.473 | 1 | -0.0919 |
| ACVR1C (activin A receptor type 1C) | 0.473 | 1 | -0.0919 |
| BLK (BLK proto-oncogene, Src family tyrosine kinase) | 0.473 | 1 | -0.00888 |
| STK36 (serine/threonine kinase 36) | 0.473 | 1 | 0.0284 |
| AK3 (adenylate kinase 3) | 0.351 | 0.996 | 0.0372 |
| CDKL3 (cyclin dependent kinase like 3) | 0.473 | 1 | -0.0919 |
| NTN4 (netrin 4) | 0.473 | 1 | -0.0472 |
| PRKAB1 (protein kinase AMP-activated non-catalytic subunit beta 1) | 0.473 | 1 | 0.0553 |
| PANK1 (pantothenate kinase 1) | 0.473 | 1 | -0.0919 |
| PIK3C2A | 0.473 | 1 | 0.0463 |
| PPP2R1A (protein phosphatase 2 scaffold subunit Aalpha) | 0.473 | 1 | 0.0304 |
| PCBP1 (poly(rC) binding protein 1) | 0.473 | 1 | 0.0128 |
| SRC (SRC proto-oncogene, non-receptor tyrosine kinase) | -0.152 | 0.98 | -0.11 |
| NUP62 (nucleoporin 62) | 0.473 | 1 | -0.0124 |
| NEK5 (NIMA related kinase 5) | 0.473 | 1 | -0.0919 |
| FES (FES proto-oncogene, tyrosine kinase) | -1.75 | 0.929 | -0.0319 |
| PFKFB1 (6-phosphofructo-2-kinase/fructose-2,6-biphosphatase 1) | 0.473 | 1 | -0.0528 |
| PNCK (pregnancy up-regulated nonubiquitous CaM kinase) | 0.473 | 1 | 0.0656 |
| PTPRU (protein tyrosine phosphatase receptor type U) | 0.473 | 1 | 0.0155 |
| SMAD4 (SMAD family member 4) | 0.473 | 1 | 0.0921 |
| TYRO3 (TYRO3 protein tyrosine kinase) | -2.3 | 0.912 | -0.156 |
| RPS6KA1 (ribosomal protein S6 kinase A1) | 0.473 | 1 | -0.048 |
| NEK2 (NIMA related kinase 2) | 0.473 | 1 | 0.00667 |
| CDC7 (cell division cycle 7) | 0.473 | 1 | 0.0883 |
| DCLK3 (doublecortin like kinase 3) | -0.588 | 0.966 | -0.123 |
| TRPM6 | 0.473 | 1 | 0.04 |
| DTYMK (deoxythymidylate kinase) | 0.473 | 1 | -0.0447 |
| SLK (STE20 like kinase) | 0.473 | 1 | -0.0919 |
| PLK1 (polo like kinase 1) | -0.276 | 0.976 | 0.0139 |
| EPHB1 (EPH receptor B1) | 0.473 | 1 | -0.0412 |
| IRAK3 (interleukin 1 receptor associated kinase 3) | -0.245 | 0.977 | -0.0227 |
| AK1 (adenylate kinase 1) | -0.273 | 0.976 | -0.113 |
| TP53BP1 (tumor protein p53 binding protein 1) | -1.79 | 0.928 | -0.13 |
| PIK3CB | -0.694 | 0.963 | 0.0321 |

Records above whose gene name starts with F or f (2):
| gene | robust z-score, siRNA alone | viability, siRNA alone (fraction of control) | synergy score with BYL719 |
| --- | --- | --- | --- |
| FGR (FGR proto-oncogene, Src family tyrosine kinase) | 0.473 | 1 | 0.0108 |
| FES (FES proto-oncogene, tyrosine kinase) | -1.75 | 0.929 | -0.0319 |
